According to the supplement of paper PMC9877034:
Counter-ions that a name gives are not always drawn. The full ranking holds about 1,000 compounds; the median of “cFRET/donor change relative to DMSO, normalised to beta-lapachone positive control (supercomplex I-IV assembly)” is about 0.18, and the lowest 2% start at about -1. This is one part of the list.

The compounds below were run on C2C12 (NDUFB8-AcGFP / COX8A-DsRed-Monomer FRET reporter) (assay: cFRET/donor change relative to DMSO, normalised to beta-lapachone positive control (supercomplex I-IV assembly) (fraction of beta-lapachone effect); higher = more respiratory supercomplex assembly). Settings: 40 µM; 24 h.
Method: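 Cells were treated with 40 uM compound for 24 h and imaged on an IN Cell Analyzer 6000. Corrected FRET was divided by donor signal (cFRET/donor) and measured in two replicate experiments. The score is (mean cFRET/donor of compound - mean DMSO) / (mean beta-lapachone 40 uM - mean DMSO). Compounds flagged for prominent cell death, abnormal morphology or decreased cell number were excluded.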
`CC1(C)C(=O)N(CCN2CCC(C(=O)c3ccc(F)cc3)CC2)c2ccccc21` [LY-310,762 hydrochloride] gave a cFRET/donor change of 0.599. `CN(C)CCC(c1ccccc1)c1ccccn1` (stereo not drawn) [Pheniramine maleate] showed a cFRET/donor change of -0.0525. `Cc1c(O)cccc1C(=O)N[C@@H](CSc1ccccc1)[C@H](O)CN1C[C@H]2CCCC[C@H]2C[C@H]1C(=O)NC(C)(C)C` [Nelfinavir mesylate hydrate] was tested, and the cFRET/donor change was -0.54. Compound `COc1ccc(/C=C2\COc3ccc(C)cc3C2=O)cc1O` has a cFRET/donor change of 0.511. With `COC1=C(OC)C(=O)c2ccccc2C1=O` [2,3-Dimethoxy-1,4-naphthoquinone] the cFRET/donor change was 0.433. Compound `CCN1CCCC1CNC(=O)c1cc(S(N)(=O)=O)ccc1OC` (racemic) [(±)-Sulpiride] has a cFRET/donor change of -0.161. `CN(C)C(=O)N=NC(=O)N(C)C` [N,N,N',N'-Tetramethylazodicarboxamide] was tested, and the cFRET/donor change was 0.0995. For `CCN1/C(=C/C(C)=O)Sc2ccc(OC)cc21`, the cFRET/donor change was 1.45. Work on `Cc1nc(N=Nc2ccc(S(=O)(=O)O)cc2S(=O)(=O)O)c(COP(=O)(O)O)c(C=O)c1O` yielded a cFRET/donor change of 0.328. Compound `CCCCC[C@H](CC(=O)NO)C(=O)N[C@H](C(=O)N1CCC[C@H]1CO)C(C)C` [Actinonin] has a cFRET/donor change of 0.125. For `CC(=O)OC(C)C[N+](C)(C)C` (stereo not drawn) [Acetyl-beta-methylcholine chloride], the cFRET/donor change was 0.0536. `C=CCc1ccccc1OCC(O)CNC(C)C` (stereo not drawn) [Alprenolol hydrochloride] gave a cFRET/donor change of 0.0171. `COc1cc(CC(=O)O)ccc1O` [4-Hydroxy-3-methoxyphenylacetic acid] gave a cFRET/donor change of -0.134. `CCOc1ncc(S(=O)(=O)N2CCN(CC)CC2)cc1-c1nc(=O)c2nn(CCOC)c(CC)c2[nH]1` [Gisadenafil besylate salt] showed a cFRET/donor change of 0.0753. `CCNc1nc2c(ncn2[C@H]2C[C@H](O)[C@@H](CO)O2)c(=O)[nH]1` [N2-Ethyl-2'-deoxyguanosine] showed a cFRET/donor change of 0.301. With `NC(=O)NO` [Hydroxyurea] the cFRET/donor change was 0.118. Compound `CC[C@]1(O)C[C@@H]2CN(CCc3c([nH]c4ccccc34)[C@@](C(=O)OC)(c3cc4c(cc3OC)N(C)[C@H]3[C@@](O)(C(=O)OC)[C@H](OC(C)=O)[C@]5(CC)C=CCN6CC[C@]43[C@@H]65)C2)C1` [Vinblastine sulfate salt] has a cFRET/donor change of 0.973. With `CCCCC#Cc1nc(NC)c2ncn([C@@H]3O[C@H](CO)[C@@H](O)[C@H]3O)c2n1` the cFRET/donor change was 0.242. For `O=C(Nc1ccc2[nH]ncc2c1)C1CCC1` [Rhodblock 6], the cFRET/donor change was 0.156. `Nc1nccc2c1ncn2[C@@H]1O[C@H](CO)[C@@H](O)[C@H]1O` [3-deazaadenosine] was tested, and the cFRET/donor change was 0.17. With `CC(C)(Oc1ccc(C2CC2(Cl)Cl)cc1)C(=O)O` (stereo not drawn) [Ciprofibrate] the cFRET/donor change was -0.0424. Compound `CNC1(C)C2CCC(C2)C1(C)C` (stereo not drawn) [Mecamylamine hydrochloride] has a cFRET/donor change of 0.164. `COc1cccc(OC)c1-c1cc(C(=O)NC2(C(=O)O)C3CC4CC(C3)CC2C4)nn1-c1ccc(C(=O)N(C)CCCN(C)C)cc1C(C)C` (stereo not drawn) showed a cFRET/donor change of 0.153. For `COc1ccc(CCN(C)CCCC(C#N)(c2ccc(OC)c(OC)c2)C(C)C)cc1OC` (racemic) [(±)-Verapamil hydrochloride], the cFRET/donor change was 0.448. `CC(C)N(CCC(=O)c1ccc2ccccc2c1)Cc1ccccc1` showed a cFRET/donor change of 0.232. In the case of `CCOC(=O)c1ccc(C#Cc2ccc3c(c2)C(C)(C)CCS3)nc1` [Tazarotene], the cFRET/donor change is reported as 0.454. In the case of `N[C@@H](CCC(=O)N[C@@H](CSN=O)C(=O)NCC(=O)O)C(=O)O` [S-Nitrosoglutathione], the cFRET/donor change is reported as -0.171. For `CC(CCc1ccc(O)cc1)NCCc1ccc(O)c(O)c1` (stereo not drawn) [Dobutamine hydrochloride], the cFRET/donor change was 1.02. In the case of `CCOc1nc2cccc(C(=O)OC(C)OC(=O)OC3CCCCC3)c2n1Cc1ccc(-c2ccccc2-c2nn[nH]n2)cc1` (stereo not drawn) [Candesartan cilexetil], the cFRET/donor change is reported as 0.942. `COc1ccccc1OCCNCC(O)COc1cccc2[nH]c3ccccc3c12` (stereo not drawn) [Carvedilol] was tested, and the cFRET/donor change was 0.5. In the case of `CCCOC(=O)c1c(-c2ccccc2)nc(CC)c(C(=O)SCC)c1CCC`, the cFRET/donor change is reported as -0.153. For `CCN1CCCC1CNC(=O)c1cc(S(=O)(=O)CC)c(N)cc1OC` (stereo not drawn) [Amisulpride], the cFRET/donor change was 0.0234. `CC(C)(NS(=O)(=O)c1ccc(Oc2ccc(F)cc2)cc1)C(=O)NO` gave a cFRET/donor change of 0.196. Work on `CC(CN1c2ccccc2Sc2ccccc21)N(C)C` (stereo not drawn) [Promethazine hydrochloride] yielded a cFRET/donor change of 0.123. `N[C@H](C(=O)O)[C@H](Cc1ccccc1)C(=O)O` [L-Beta-threo-benzyl-aspartate] was tested, and the cFRET/donor change was -0.122. Compound `CCOC(=O)C1=C(C)NC(C)=C(C(=O)OC)C1c1cccc([N+](=O)[O-])c1` (stereo not drawn) [Nitrendipine] has a cFRET/donor change of -0.204. Compound `CN(C)c1nc(N)c(C(=O)NC(=N)N)nc1Cl` [5-(N,N-Dimethyl)amiloride hydrochloride] has a cFRET/donor change of 0.174. `C[C@H](O)C(=O)C1=Nc2c(nc(N)[nH]c2=O)NC1` [Sepiapterin] was tested, and the cFRET/donor change was -0.818. `COc1ccccc1N1CCN(CCN2C(=O)CC3(CCCC3)CC2=O)CC1` [BMY 7378 dihydrochloride] gave a cFRET/donor change of 0.18. Work on `CN1Cc2sccc2C(c2ccc(O)c(O)c2)C1` (stereo not drawn) yielded a cFRET/donor change of 0.596. Compound `CC(C)(C)c1cc(/C=C(\C#N)C(N)=S)cc(C(C)(C)C)c1O` [Tyrphostin AG 879] has a cFRET/donor change of -2.01. `CN(CCCOc1ccc(Cc2ccccc2)cc1)CCC(=O)O` showed a cFRET/donor change of 0.52. With `CN(C)CCCC1(c2ccc(F)cc2)OCc2cc(C#N)ccc21` (stereo not drawn) [Citalopram hydrobromide] the cFRET/donor change was 0.337. In the case of `Nn1nnc2ccccc21` [1-Aminobenzotriazole], the cFRET/donor change is reported as 0.308. For `CCCC(CCC)C(=O)O` [Valproic acid sodium], the cFRET/donor change was 0.384. Work on `CC(C)(C)NCC(O)c1ccc(O)c(CO)c1` (stereo not drawn) [Albuterol hemisulfate] yielded a cFRET/donor change of 0.486. Compound `CCCCCCCC/C=C\CCCCCCCC(=O)O` [Oleic Acid] has a cFRET/donor change of 0.074. For `Cn1c(=O)c2c(ncn2C)n(C)c1=O` [Caffeine], the cFRET/donor change was 0.18. In the case of `[N-]=[N+]=Nc1ccc(C(=O)CSC[C@H](NC(=O)CC[C@H](N)C(=O)O)C(=O)NCC(=O)O)cc1` [S-(p-Azidophenacyl)glutathione], the cFRET/donor change is reported as -0.174. Compound `CC(=O)O[C@H]1Cc2ccccc2N(C(N)=O)c2ccccc21` has a cFRET/donor change of 0.157. In the case of `CC(C)(C)NC(=O)[C@@H]1CN(Cc2cccnc2)CCN1C[C@@H](O)C[C@@H](Cc1ccccc1)C(=O)N[C@H]1c2ccccc2C[C@H]1O` [Indinavir sulfate salt hydrate], the cFRET/donor change is reported as 0.0944. `O=C(O[C@@H]1C[C@@H]2C[C@H]3C[C@H](C1)N2CC3=O)c1c[nH]c2ccccc12` [Dolasetron mesylate hydrate] showed a cFRET/donor change of 0.115. `CCCCCCCCc1ccc(-c2ccc(C(=O)O)cc2)cc1` gave a cFRET/donor change of 0.0523. `C[N+](C)(C)CCCCCC[N+](C)(C)C` [Hexamethonium dichloride] showed a cFRET/donor change of -0.0282. For `C[N+](C)(C)CCCCCC[N+](C)(C)C` [Hexamethonium bromide], the cFRET/donor change was -0.056. `CCCCCC[C@@H]([C@@H](C)O)n1cnc2c(N)ncnc21` [erythro-9-(2-Hydroxy-3-nonyl)adenine hydrochloride] was tested, and the cFRET/donor change was 0.117. `Cc1cn(C2C=CC(CO)O2)c(=O)[nH]c1=O` (stereo not drawn) [2',3'-didehydro-3'-deoxythymidine] gave a cFRET/donor change of 0.515. For `O=C(O)c1cccnc1Nc1cccc(C(F)(F)F)c1` [Niflumic acid], the cFRET/donor change was 0.158. `Nc1nc2c(c(=O)[nH]1)C[C@@H](CCc1ccc(C(=O)N[C@@H](CCC(=O)O)C(=O)O)cc1)CN2` [Lometrexol hydrate] showed a cFRET/donor change of -0.284. `Cc1ccc(O)c(N=Nc2ccccc2)n1` gave a cFRET/donor change of 0.375. In the case of `CC(C)(C)C(=O)Oc1ccc(S(=O)(=O)Nc2ccccc2C(=O)NCC(=O)O)cc1` [Sivelestat sodium salt hydrate], the cFRET/donor change is reported as -0.0182. In the case of `CSc1ccc2c(c1)C(N1CCN(C)CC1)Cc1ccccc1S2` (stereo not drawn) [Methiothepin mesylate], the cFRET/donor change is reported as 0.408. Compound `COc1ccc(/C=C/c2nc(NCCCN(C)C)c3ccccc3n2)cc1` has a cFRET/donor change of 0.418. In the case of `Cc1cc(C(C)(C)C)c(O)c(C)c1CC1=NCCN1` [Oxymetazoline hydrochloride], the cFRET/donor change is reported as 0.136. `CN(C)CCCN1c2ccccc2Sc2ccccc21` [Promazine hydrochloride] was tested, and the cFRET/donor change was -0.115. `CC(N)=NCCCC[C@H](N)C(=O)O` [L-N6-(1-Iminoethyl)lysine hydrochloride] gave a cFRET/donor change of -0.0938. `CC(C)(C(=O)O)c1ccc(C(O)CCCN2CCC(C(O)(c3ccccc3)c3ccccc3)CC2)cc1` (stereo not drawn) [Fexofenadine hydrochloride] was tested, and the cFRET/donor change was -0.0711. `CCN(CC)CCCCNc1ncc2cc(-c3c(Cl)cccc3Cl)c(NC(=O)NC(C)(C)C)nc2n1` showed a cFRET/donor change of 0.403. For `O=C(Nc1ccccc1)c1cc([N+](=O)[O-])ccc1Cl`, the cFRET/donor change was -0.257. Work on `C[N+]1(CCCCC[N+]2(C)CCCC2)CCCC1` [Pentolinium di[L(+)-tartrate]] yielded a cFRET/donor change of -0.363. For `C[C@]12CCC(=O)C=C1CC[C@@H]1[C@@H]2[C@@H](O)C[C@@]2(C)[C@H]1CC[C@]2(O)C(=O)CO` [Hydrocortisone], the cFRET/donor change was 0.0884. `CNCCCC1c2ccccc2C=Cc2ccccc21` [Protriptyline hydrochloride] was tested, and the cFRET/donor change was 0.409. With `Oc1ncnc2[nH]ncc12` [Allopurinol] the cFRET/donor change was -0.0233. `S=C(S)OC1CC2CC1C1CCCC21` [D-609 potassium] showed a cFRET/donor change of 0.225. Compound `Cn1cnc2c(NCc3ccccc3)nc(NCCO)nc21` [Olomoucine] has a cFRET/donor change of -0.51. `COc1cccc2c1[C@@H]1CN(CCCCn3c(=O)[nH]c4c(sc5ncc(-c6ccccc6)nc54)c3=O)C[C@@H]1CO2` [Fiduxosin hydrochloride] showed a cFRET/donor change of -1.25. Compound `N=C(N)c1ccc(OCCCCCOc2ccc(C(=N)N)cc2)cc1` [Pentamidine isethionate] has a cFRET/donor change of 0.191. `C=CC1=C(C)c2cc3[nH]c(cc4nc(cc5[nH]c(cc1n2)c(C)c5CCC(=O)O)C(CCC(=O)O)=C4C)c(C)c3C=C` [Protoporphyrin IX disodium] gave a cFRET/donor change of 3.12.
